These are yes or no findings as the source states them, for the method shown. For some assays here: Binding seen in cells or lysates may run through a third protein. Some entries that bind do so weakly or less than the wild type. Sequences can lack the tags named with a protein.

One test concerns the target T1, Spn3-GFP (S. pombe) (UniProt P48008).
T1 sequence: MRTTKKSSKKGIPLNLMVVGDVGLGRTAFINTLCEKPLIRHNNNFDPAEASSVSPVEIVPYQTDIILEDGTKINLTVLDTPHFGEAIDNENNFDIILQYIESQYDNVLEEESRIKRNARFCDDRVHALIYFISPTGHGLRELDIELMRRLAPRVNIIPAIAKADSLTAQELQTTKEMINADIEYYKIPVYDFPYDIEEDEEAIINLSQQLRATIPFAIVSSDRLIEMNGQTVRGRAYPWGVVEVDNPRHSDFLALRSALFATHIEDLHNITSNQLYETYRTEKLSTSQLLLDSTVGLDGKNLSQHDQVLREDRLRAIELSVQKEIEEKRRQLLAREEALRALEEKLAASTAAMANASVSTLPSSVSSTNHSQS
Nature of the test: GFP-GBP trap.

The next test concerns the target T2, Rga4-GFP (S. pombe) (UniProt O74360).
T2 sequence: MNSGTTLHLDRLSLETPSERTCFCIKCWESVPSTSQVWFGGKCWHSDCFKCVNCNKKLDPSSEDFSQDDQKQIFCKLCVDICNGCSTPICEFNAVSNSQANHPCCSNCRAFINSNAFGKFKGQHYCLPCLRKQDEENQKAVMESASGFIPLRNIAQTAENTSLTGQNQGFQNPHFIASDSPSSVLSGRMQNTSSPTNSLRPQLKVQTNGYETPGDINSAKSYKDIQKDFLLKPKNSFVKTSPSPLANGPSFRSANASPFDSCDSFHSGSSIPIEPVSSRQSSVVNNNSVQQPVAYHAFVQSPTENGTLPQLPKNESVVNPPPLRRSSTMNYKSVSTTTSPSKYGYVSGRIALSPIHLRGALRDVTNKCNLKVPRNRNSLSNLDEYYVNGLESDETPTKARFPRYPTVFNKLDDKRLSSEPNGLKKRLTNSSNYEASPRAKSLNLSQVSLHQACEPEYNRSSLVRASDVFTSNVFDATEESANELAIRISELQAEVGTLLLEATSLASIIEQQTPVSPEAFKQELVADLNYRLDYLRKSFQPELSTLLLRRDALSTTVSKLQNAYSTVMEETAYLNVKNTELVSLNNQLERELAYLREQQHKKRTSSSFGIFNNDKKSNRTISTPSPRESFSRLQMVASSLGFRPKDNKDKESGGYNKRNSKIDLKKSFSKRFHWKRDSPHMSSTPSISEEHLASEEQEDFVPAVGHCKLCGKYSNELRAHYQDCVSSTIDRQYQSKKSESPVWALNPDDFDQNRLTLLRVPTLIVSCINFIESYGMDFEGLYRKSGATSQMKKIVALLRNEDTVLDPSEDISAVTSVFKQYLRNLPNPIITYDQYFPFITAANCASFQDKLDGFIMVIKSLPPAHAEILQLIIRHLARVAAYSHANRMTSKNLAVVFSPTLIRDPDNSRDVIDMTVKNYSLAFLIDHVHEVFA
Nature of the test: GFP-GBP trap.

For the next test, the target named is T3, Spn1-tagRFP (S. pombe) (UniProt O36023).
T3 sequence: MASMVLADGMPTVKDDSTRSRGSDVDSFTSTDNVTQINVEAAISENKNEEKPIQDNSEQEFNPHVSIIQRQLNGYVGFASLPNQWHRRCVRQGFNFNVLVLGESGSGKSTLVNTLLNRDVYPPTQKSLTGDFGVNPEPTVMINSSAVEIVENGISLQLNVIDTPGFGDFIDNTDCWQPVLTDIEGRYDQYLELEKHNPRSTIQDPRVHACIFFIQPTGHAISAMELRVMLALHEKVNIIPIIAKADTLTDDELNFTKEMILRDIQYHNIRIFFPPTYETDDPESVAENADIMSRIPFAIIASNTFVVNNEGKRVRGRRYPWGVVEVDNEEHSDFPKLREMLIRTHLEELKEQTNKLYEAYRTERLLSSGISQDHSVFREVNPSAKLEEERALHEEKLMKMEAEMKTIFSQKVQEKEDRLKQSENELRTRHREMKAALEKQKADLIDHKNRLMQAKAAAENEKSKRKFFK
Nature of the test: FRET or BRET.

B1: Spn1-tdTomato (protein, UniProt O36023 1-469)
chain: MASMVLADGMPTVKDDSTRSRGSDVDSFTSTDNVTQINVEAAISENKNEEKPIQDNSEQEFNPHVSIIQRQLNGYVGFASLPNQWHRRCVRQGFNFNVLVLGESGSGKSTLVNTLLNRDVYPPTQKSLTGDFGVNPEPTVMINSSAVEIVENGISLQLNVIDTPGFGDFIDNTDCWQPVLTDIEGRYDQYLELEKHNPRSTIQDPRVHACIFFIQPTGHAISAMELRVMLALHEKVNIIPIIAKADTLTDDELNFTKEMILRDIQYHNIRIFFPPTYETDDPESVAENADIMSRIPFAIIASNTFVVNNEGKRVRGRRYPWGVVEVDNEEHSDFPKLREMLIRTHLEELKEQTNKLYEAYRTERLLSSGISQDHSVFREVNPSAKLEEERALHEEKLMKMEAEMKTIFSQKVQEKEDRLKQSENELRTRHREMKAALEKQKADLIDHKNRLMQAKAAAENEKSKRKFFK
Turning to B1, the binding result is listed as “binds” with Spn3-GFP (S. pombe) and “no binding” with Rga4-GFP (S. pombe).

B2: Rga4-GFP (protein, UniProt O74360 1-933)
chain: MNSGTTLHLDRLSLETPSERTCFCIKCWESVPSTSQVWFGGKCWHSDCFKCVNCNKKLDPSSEDFSQDDQKQIFCKLCVDICNGCSTPICEFNAVSNSQANHPCCSNCRAFINSNAFGKFKGQHYCLPCLRKQDEENQKAVMESASGFIPLRNIAQTAENTSLTGQNQGFQNPHFIASDSPSSVLSGRMQNTSSPTNSLRPQLKVQTNGYETPGDINSAKSYKDIQKDFLLKPKNSFVKTSPSPLANGPSFRSANASPFDSCDSFHSGSSIPIEPVSSRQSSVVNNNSVQQPVAYHAFVQSPTENGTLPQLPKNESVVNPPPLRRSSTMNYKSVSTTTSPSKYGYVSGRIALSPIHLRGALRDVTNKCNLKVPRNRNSLSNLDEYYVNGLESDETPTKARFPRYPTVFNKLDDKRLSSEPNGLKKRLTNSSNYEASPRAKSLNLSQVSLHQACEPEYNRSSLVRASDVFTSNVFDATEESANELAIRISELQAEVGTLLLEATSLASIIEQQTPVSPEAFKQELVADLNYRLDYLRKSFQPELSTLLLRRDALSTTVSKLQNAYSTVMEETAYLNVKNTELVSLNNQLERELAYLREQQHKKRTSSSFGIFNNDKKSNRTISTPSPRESFSRLQMVASSLGFRPKDNKDKESGGYNKRNSKIDLKKSFSKRFHWKRDSPHMSSTPSISEEHLASEEQEDFVPAVGHCKLCGKYSNELRAHYQDCVSSTIDRQYQSKKSESPVWALNPDDFDQNRLTLLRVPTLIVSCINFIESYGMDFEGLYRKSGATSQMKKIVALLRNEDTVLDPSEDISAVTSVFKQYLRNLPNPIITYDQYFPFITAANCASFQDKLDGFIMVIKSLPPAHAEILQLIIRHLARVAAYSHANRMTSKNLAVVFSPTLIRDPDNSRDVIDMTVKNYSLAFLIDHVHEVFA
Take B2: in the test with Spn1-tagRFP (S. pombe), the binding result is on record as “no binding”.

B3: Rga4-mCherry (protein, UniProt O74360 1-933)
chain: MNSGTTLHLDRLSLETPSERTCFCIKCWESVPSTSQVWFGGKCWHSDCFKCVNCNKKLDPSSEDFSQDDQKQIFCKLCVDICNGCSTPICEFNAVSNSQANHPCCSNCRAFINSNAFGKFKGQHYCLPCLRKQDEENQKAVMESASGFIPLRNIAQTAENTSLTGQNQGFQNPHFIASDSPSSVLSGRMQNTSSPTNSLRPQLKVQTNGYETPGDINSAKSYKDIQKDFLLKPKNSFVKTSPSPLANGPSFRSANASPFDSCDSFHSGSSIPIEPVSSRQSSVVNNNSVQQPVAYHAFVQSPTENGTLPQLPKNESVVNPPPLRRSSTMNYKSVSTTTSPSKYGYVSGRIALSPIHLRGALRDVTNKCNLKVPRNRNSLSNLDEYYVNGLESDETPTKARFPRYPTVFNKLDDKRLSSEPNGLKKRLTNSSNYEASPRAKSLNLSQVSLHQACEPEYNRSSLVRASDVFTSNVFDATEESANELAIRISELQAEVGTLLLEATSLASIIEQQTPVSPEAFKQELVADLNYRLDYLRKSFQPELSTLLLRRDALSTTVSKLQNAYSTVMEETAYLNVKNTELVSLNNQLERELAYLREQQHKKRTSSSFGIFNNDKKSNRTISTPSPRESFSRLQMVASSLGFRPKDNKDKESGGYNKRNSKIDLKKSFSKRFHWKRDSPHMSSTPSISEEHLASEEQEDFVPAVGHCKLCGKYSNELRAHYQDCVSSTIDRQYQSKKSESPVWALNPDDFDQNRLTLLRVPTLIVSCINFIESYGMDFEGLYRKSGATSQMKKIVALLRNEDTVLDPSEDISAVTSVFKQYLRNLPNPIITYDQYFPFITAANCASFQDKLDGFIMVIKSLPPAHAEILQLIIRHLARVAAYSHANRMTSKNLAVVFSPTLIRDPDNSRDVIDMTVKNYSLAFLIDHVHEVFA
On to B3, for which, in the test with Spn3-GFP (S. pombe), the binding entry is reported as “no binding”.

B4: Spn3-GFP (protein, UniProt P48008 1-373)
chain: MRTTKKSSKKGIPLNLMVVGDVGLGRTAFINTLCEKPLIRHNNNFDPAEASSVSPVEIVPYQTDIILEDGTKINLTVLDTPHFGEAIDNENNFDIILQYIESQYDNVLEEESRIKRNARFCDDRVHALIYFISPTGHGLRELDIELMRRLAPRVNIIPAIAKADSLTAQELQTTKEMINADIEYYKIPVYDFPYDIEEDEEAIINLSQQLRATIPFAIVSSDRLIEMNGQTVRGRAYPWGVVEVDNPRHSDFLALRSALFATHIEDLHNITSNQLYETYRTEKLSTSQLLLDSTVGLDGKNLSQHDQVLREDRLRAIELSVQKEIEEKRRQLLAREEALRALEEKLAASTAAMANASVSTLPSSVSSTNHSQS
B4: the binding entry with Spn1-tagRFP (S. pombe) is “binds”.
